No constants are given. Whether binding was seen depends on the method and setting. Some binding calls cover weakened binding; strength is not graded here.
Molecular target: biotin-labeled human PAD4 protein (human) (UniProt Q9UM07)
Assay: SPR, Biacore T200, biotin-labeled human PAD4 captured on chip, 10 nM IgG as analyte

Chains of the proteins cited; added tags and fusions are not shown. Lines headed by an entry give the natural chain unless they say otherwise; changes in a name come on top.
UniProt Q9UM07: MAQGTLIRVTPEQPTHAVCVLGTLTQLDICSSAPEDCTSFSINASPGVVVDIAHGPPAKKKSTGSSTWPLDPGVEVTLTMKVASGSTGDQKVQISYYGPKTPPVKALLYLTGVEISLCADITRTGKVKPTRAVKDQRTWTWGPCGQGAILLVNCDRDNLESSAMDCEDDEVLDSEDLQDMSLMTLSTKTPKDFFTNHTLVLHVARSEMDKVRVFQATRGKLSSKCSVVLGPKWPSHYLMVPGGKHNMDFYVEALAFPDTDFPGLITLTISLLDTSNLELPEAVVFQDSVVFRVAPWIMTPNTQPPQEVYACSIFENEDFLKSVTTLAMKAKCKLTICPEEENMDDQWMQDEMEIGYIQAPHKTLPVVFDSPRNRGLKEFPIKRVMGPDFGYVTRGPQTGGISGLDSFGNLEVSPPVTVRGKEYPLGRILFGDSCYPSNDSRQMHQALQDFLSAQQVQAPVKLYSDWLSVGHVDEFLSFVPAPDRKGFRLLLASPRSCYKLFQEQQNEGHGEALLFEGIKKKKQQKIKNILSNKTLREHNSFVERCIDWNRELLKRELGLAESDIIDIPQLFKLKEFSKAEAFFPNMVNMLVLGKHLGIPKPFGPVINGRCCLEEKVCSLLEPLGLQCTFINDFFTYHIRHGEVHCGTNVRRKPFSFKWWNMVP

B1: Lib1(6R)-1-39 (antibody, human IgG1, lambda, V domains shown)
VH: EVQLLESGGGLVQPGGSLRLSCAASGFTFSTYAMGWVRQAPGKGLEFVAAIRNDGSWTGTSVNAKTRFTISRDNSKNTLYLQMNSLRAEDTAVYYCAKYTGSSGGSIGAWGQGTLVTVSS
VL: SYELTQPPSVSVSPGQTARITCSGGNRNYYYGWYQQKPGQAPVTVIYANDKRPSGIPERFSGSNSGSTTTLTISGVQAEDEADYYCGTATTGKYVFGGGTKLTVLG
  binding: binds
